{
  "source": "paper PMC9283540",
  "key": {"[1]": {"molecular_target": "T1, TipsytheTRex immunity repressor (WT of study stock) (Mycobacteriophage TipsytheTRex (cluster A)) (UniProt A0A2D1GKF7)", "assay": "EMSA", "conditions": "EMSA: 20 mM Tris pH 7.0, 25 mM NaCl, 1 mM DTT, 100 ug/mL BSA, 5% glycerol, 0.25 uM FAM-DNA, room temperature 30 min, 5% native gel in 1x TAE; recombinant protein; protein details: N-terminal His6 (pET28a); label: 3'-FAM on strand 2"}, "[2]": {"molecular_target": "TipsytheTRex repressor R108A (Mycobacteriophage TipsytheTRex (cluster A)) (UniProt A0A2D1GKF7)", "assay": "EMSA", "conditions": "up to 5 uM, no specific complex; EMSA: 20 mM Tris pH 7.0, 25 mM NaCl, 1 mM DTT, 100 ug/mL BSA, 5% glycerol, 0.25 uM FAM-DNA, room temperature 30 min, 5% native gel in 1x TAE; recombinant protein; protein details: N-terminal His6 (pET28a); label: 3'-FAM on strand 2"}, "[3]": {"molecular_target": "TipsytheTRex repressor HTH domain (Mycobacteriophage TipsytheTRex (cluster A)) (UniProt A0A2D1GKF7)", "assay": "EMSA", "conditions": "up to 25 uM, no specific binding; EMSA: 20 mM Tris pH 7.0, 25 mM NaCl, 1 mM DTT, 100 ug/mL BSA, 5% glycerol, 0.25 uM FAM-DNA, room temperature 30 min, 5% native gel in 1x TAE; recombinant protein; protein details: pET28a (NdeI/XhoI), nickel-purified; label: 3'-FAM on strand 2"}, "[4]": {"molecular_target": "TipsytheTRex repressor R45A (Mycobacteriophage TipsytheTRex (cluster A)) (UniProt A0A2D1GKF7)", "assay": "EMSA", "conditions": "up to 5 uM, severe defect, similar to R108A; EMSA: 20 mM Tris pH 7.0, 25 mM NaCl, 1 mM DTT, 100 ug/mL BSA, 5% glycerol, 0.25 uM FAM-DNA, room temperature 30 min, 5% native gel in 1x TAE; recombinant protein; protein details: N-terminal His6 (pET28a); label: 3'-FAM on strand 2"}, "[5]": {"molecular_target": "TipsytheTRex repressor K81A (Mycobacteriophage TipsytheTRex (cluster A)) (UniProt A0A2D1GKF7)", "assay": "EMSA", "conditions": "up to 5 uM, severe defect, similar to R108A; EMSA: 20 mM Tris pH 7.0, 25 mM NaCl, 1 mM DTT, 100 ug/mL BSA, 5% glycerol, 0.25 uM FAM-DNA, room temperature 30 min, 5% native gel in 1x TAE; recombinant protein; protein details: N-terminal His6 (pET28a); label: 3'-FAM on strand 2"}, "[6]": {"molecular_target": "TipsytheTRex repressor R108Q (Mycobacteriophage TipsytheTRex (cluster A)) (UniProt A0A2D1GKF7)", "assay": "EMSA", "conditions": "up to 5 uM, severe defect, similar to R108A; EMSA: 20 mM Tris pH 7.0, 25 mM NaCl, 1 mM DTT, 100 ug/mL BSA, 5% glycerol, 0.25 uM FAM-DNA, room temperature 30 min, 5% native gel in 1x TAE; recombinant protein; protein details: N-terminal His6 (pET28a); label: 3'-FAM on strand 2"}, "[7]": {"molecular_target": "TipsytheTRex repressor W50A (Mycobacteriophage TipsytheTRex (cluster A)) (UniProt A0A2D1GKF7)", "assay": "EMSA", "conditions": "up to 5 uM, small amount of specific complex, not quantified; EMSA: 20 mM Tris pH 7.0, 25 mM NaCl, 1 mM DTT, 100 ug/mL BSA, 5% glycerol, 0.25 uM FAM-DNA, room temperature 30 min, 5% native gel in 1x TAE; recombinant protein; protein details: N-terminal His6 (pET28a); label: 3'-FAM on strand 2"}, "[8]": {"molecular_target": "TipsytheTRex repressor Stoperator domain (Mycobacteriophage TipsytheTRex (cluster A)) (UniProt A0A2D1GKF7)", "assay": "EMSA", "conditions": "up to 25 uM, no specific binding; EMSA: 20 mM Tris pH 7.0, 25 mM NaCl, 1 mM DTT, 100 ug/mL BSA, 5% glycerol, 0.25 uM FAM-DNA, room temperature 30 min, 5% native gel in 1x TAE; recombinant protein; protein details: pET28a (NdeI/XhoI), nickel-purified; label: 3'-FAM on strand 2"}, "[9]": {"test_system": "TipsytheTRex repressor HTH domain + TipsytheTRex repressor Stoperator domain", "assay": "EMSA", "conditions": "the two domains mixed in trans, no specific binding; EMSA: 20 mM Tris pH 7.0, 25 mM NaCl, 1 mM DTT, 100 ug/mL BSA, 5% glycerol, 0.25 uM FAM-DNA, room temperature 30 min, 5% native gel in 1x TAE; recombinant protein; label: 3'-FAM on strand 2"}, "[10]": {"molecular_target": "T1, TipsytheTRex immunity repressor (WT of study stock) (Mycobacteriophage TipsytheTRex (cluster A))", "assay": "SEC-SAXS-MALS", "conditions": "recombinant protein, protein details: N-terminal His6 (pET28a)"}, "[11]": {"molecular_target": "TipsytheTRex repressor, selenomethionine (Mycobacteriophage TipsytheTRex (cluster A)) (UniProt A0A2D1GKF7)", "assay": "X-ray crystallography", "conditions": "selenomethionine; recombinant protein; protein details: N-terminal His6 (pET28a)"}, "[12]": {"molecular_target": "T1, TipsytheTRex immunity repressor (WT of study stock) (Mycobacteriophage TipsytheTRex (cluster A))", "assay": "X-ray crystallography", "conditions": "native; recombinant protein; protein details: N-terminal His6 (pET28a)"}},
  "note": "Construct, isoform or probe ends are uncertain for at least one entry. For some assays here: A negative result means that nothing was seen under these conditions. For some assays here: The comparison behind a weaker result is the experiment's own reference, which may not be listed here.",
  "data": [
    {"sequence": "ACCCTGGAGAAATCCCCTAGCCCAGCCAGC (double strand) [30-bp random (no consensus)]", "values": [
      {"measurement": "binding result", "setting": "[1]", "value": "no binding"}
    ]},
    {"sequence": "ACGGCCCGCTTGACAGCCACCGAAACATCC (double strand) [30-bp optimal]", "values": [
      {"measurement": "binding result", "setting": "[2]", "value": "no binding"},
      {"measurement": "binding result", "setting": "[3]", "value": "no binding"},
      {"measurement": "binding result", "setting": "[4]", "value": "no binding"},
      {"measurement": "binding result", "setting": "[5]", "value": "no binding"},
      {"measurement": "binding result", "setting": "[6]", "value": "no binding"},
      {"measurement": "binding result", "setting": "[7]", "value": "binds more weakly"},
      {"measurement": "binding result", "setting": "[8]", "value": "no binding"},
      {"measurement": "binding result", "setting": "[9]", "value": "no binding"}
    ]},
    {"sequence": "CTTGACAGCCACC (double strand) [13-bp consensus, FAM]", "values": [
      {"measurement": "binding result", "setting": "[1]", "value": "no binding"}
    ]},
    {"sequence": "GGTGGCTGTCAAG (double strand) [13-bp SEC-SAXS-MALS]", "values": [
      {"measurement": "binding result", "setting": "[10]; no stable complex", "value": "no binding"}
    ]},
    {"sequence": "TGTTTCGGTGGCTGTCAAGCGGGC (double strand) [24-bp SEC-SAXS-MALS]", "values": [
      {"measurement": "binding result", "setting": "[10]; monomer:DNA complex", "value": "binds"}
    ]},
    {"sequence": "TTTCGGTGGCTGTCAAGCGGG (double strand) [21-bp crystallization]", "values": [
      {"measurement": "binding result", "setting": "[11]", "value": "binds"},
      {"measurement": "binding result", "setting": "[12]", "value": "binds"}
    ]}
  ]
}
